Data from US20250222065A1, “CYCLIC POLYPEPTIDE FOR THE TREATMENT OF PHA TYPE 1B” (priority 2015, published 2025).
At least one compound was matched to its structure with a doubt left.

Target: T1, αβγG40S-hENaC (Homo sapiens, UniProt P37088+P51168+P51170, G40S)
T1 construct: expressed in transfected cells; host or cells: HEK-293
T1 sequence (P37088 1-669): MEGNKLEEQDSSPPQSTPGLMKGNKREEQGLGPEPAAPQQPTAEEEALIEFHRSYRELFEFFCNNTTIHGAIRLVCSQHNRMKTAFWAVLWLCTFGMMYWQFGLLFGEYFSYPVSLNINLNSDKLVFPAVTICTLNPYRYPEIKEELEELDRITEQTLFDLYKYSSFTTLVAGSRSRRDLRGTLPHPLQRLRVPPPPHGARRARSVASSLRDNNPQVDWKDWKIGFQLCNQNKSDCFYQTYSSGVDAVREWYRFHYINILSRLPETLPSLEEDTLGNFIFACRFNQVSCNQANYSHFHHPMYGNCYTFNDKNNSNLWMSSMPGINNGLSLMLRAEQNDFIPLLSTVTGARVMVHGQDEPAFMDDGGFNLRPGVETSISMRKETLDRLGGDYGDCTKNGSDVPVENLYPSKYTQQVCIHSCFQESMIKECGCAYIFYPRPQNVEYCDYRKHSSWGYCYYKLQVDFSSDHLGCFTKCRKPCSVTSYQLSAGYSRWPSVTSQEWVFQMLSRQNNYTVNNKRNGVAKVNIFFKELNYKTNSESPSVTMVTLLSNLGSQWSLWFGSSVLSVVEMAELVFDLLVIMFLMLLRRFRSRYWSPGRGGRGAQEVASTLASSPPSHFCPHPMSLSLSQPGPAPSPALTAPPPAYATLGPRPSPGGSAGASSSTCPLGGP
T1 sequence (P51168 1-640): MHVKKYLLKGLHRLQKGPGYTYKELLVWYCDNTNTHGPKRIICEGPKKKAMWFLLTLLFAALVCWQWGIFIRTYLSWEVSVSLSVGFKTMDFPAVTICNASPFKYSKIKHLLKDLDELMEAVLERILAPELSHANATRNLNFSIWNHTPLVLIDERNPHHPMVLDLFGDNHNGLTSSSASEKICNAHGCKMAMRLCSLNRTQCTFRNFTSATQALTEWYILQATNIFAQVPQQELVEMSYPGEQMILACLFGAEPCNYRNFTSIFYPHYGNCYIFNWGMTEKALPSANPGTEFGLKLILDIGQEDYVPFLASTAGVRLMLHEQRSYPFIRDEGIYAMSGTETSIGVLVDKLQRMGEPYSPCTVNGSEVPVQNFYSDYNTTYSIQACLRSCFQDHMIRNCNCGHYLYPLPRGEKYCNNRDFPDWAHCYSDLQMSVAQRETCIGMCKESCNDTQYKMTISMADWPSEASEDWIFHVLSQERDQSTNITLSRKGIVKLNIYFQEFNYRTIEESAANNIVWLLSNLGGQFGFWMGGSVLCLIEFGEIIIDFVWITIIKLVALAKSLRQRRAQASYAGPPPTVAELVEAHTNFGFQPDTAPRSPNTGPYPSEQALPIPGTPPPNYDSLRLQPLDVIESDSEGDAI
T1 sequence (P51170 1-649 G40S): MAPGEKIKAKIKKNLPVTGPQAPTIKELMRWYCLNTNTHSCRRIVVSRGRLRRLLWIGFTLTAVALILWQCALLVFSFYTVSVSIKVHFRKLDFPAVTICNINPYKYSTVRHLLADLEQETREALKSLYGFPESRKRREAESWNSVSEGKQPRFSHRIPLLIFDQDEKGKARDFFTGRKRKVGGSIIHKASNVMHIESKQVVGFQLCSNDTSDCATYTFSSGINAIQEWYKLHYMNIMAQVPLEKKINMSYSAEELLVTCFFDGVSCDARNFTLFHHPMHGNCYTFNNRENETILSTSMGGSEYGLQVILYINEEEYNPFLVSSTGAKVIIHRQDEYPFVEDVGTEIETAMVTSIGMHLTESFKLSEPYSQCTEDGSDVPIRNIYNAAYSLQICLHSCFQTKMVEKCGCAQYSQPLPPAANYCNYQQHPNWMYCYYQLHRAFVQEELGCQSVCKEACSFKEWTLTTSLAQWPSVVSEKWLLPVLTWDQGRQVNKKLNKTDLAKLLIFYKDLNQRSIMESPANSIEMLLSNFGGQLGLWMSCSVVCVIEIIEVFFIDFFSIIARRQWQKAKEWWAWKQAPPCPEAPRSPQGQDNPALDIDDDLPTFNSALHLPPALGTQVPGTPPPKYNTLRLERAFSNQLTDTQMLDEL
Assay: Whole cell patch clamp, HEK-293 cells expressing mutant αβγG40S-hENaC
Assay type: cell-based
Settings: HEK-293, whole cell patch clamp; no-peptide current: loss-of-function

C[C@@H]1NC(=O)CNC(=O)[C@H](CCC(=O)O)NC(=O)[C@@H]2CCCN2C(=O)[C@H]([C@@H](C)O)NC(=O)[C@H](CCC(=O)O)NC(=O)[C@H](CCCNC(=N)N)NC(=O)[C@H](CCC(N)=O)NC(=O)CNC(=O)[C@@H](N)CSSC[C@@H](C(=O)O)NC(=O)[C@H](Cc2ccc(O)cc2)NC(=O)[C@H](Cc2c[nH]c3ccccc23)NC(=O)[C@@H]2CCCN2C(=O)[C@H](CCCCN)NC(=O)[C@H](C)NC(=O)[C@H](CCC(=O)O)NC1=O [AP301]
AP301 restored Na+ current: 90.8 ± 8.9 pA
